The structures given here were assigned with low confidence; some may be wrong.
Experiments:
CFTR [1] = target: CFTR (Homo sapiens, UniProt P13569, DEL508-508); assay: HBE Assay: Ussing chamber assay of CFTR-mediated short-circuit currents in F508del/MF-HBE cells with 1 μM Ivacaftor; settings: for HBE Max Activity: 18-24 hours, 20% human serum; for EC50: read-out: HBE EC50, 18-24 hours, 20% human serum
Experimental: Ussing chamber experiments were performed using human bronchial epithelial (HBE) cells derived from CF subjects heterozygous for F508del and a minimal function CFTR mutation (F508del/MF-HBE) and cultured as previously described (Neuberger T, Burton B, Clark H, Van Goor F Methods Mol Biol 2011:741:39-54). After four days the apical media was removed, and the cells were grown at an air liquid interface for >14 days prior to use.
(§1) To isolate the CFTR-mediated short-circuit (ISC) current, F508del/MF-HBE grown on Costar® Snapwell™ cell culture inserts were mounted in an Ussing chamber and the transepithelial ISC was measured under voltage-clamp recording conditions (Vhold=0 mV) at 37° C. The basolateral solution contained (in mM) 145 NaCl, 0.83 K2HIPO4, 3.3 KH2PO4, 1.2 MgCl2, 1.2 CaCl2), 10 Glucose, 10 HEPES (pH adjusted to 7.4 with NaOH) and the apical solution contained (in mM) 145 NaGluconate, 1.2 MgCl2, 1.2 CaCl2), 10 glucose, 10 HEPES (pH adjusted to 7.4 with NaOH) and 30 μM amiloride to block the epithelial sodium channel. Forskolin (20 μM) was added to the apical surface to activate CFTR, followed by apical addition of a CFTR inhibitor cocktail consisting of BPO, GlyH-101, and CFTR inhibitor 172 (each at 20 μM final assay concentration) to specifically isolate CFTR currents. The CFTR-mediated ISC (μA/cm^2) for each condition was determined from the peak forskolin response to the steady-state current following inhibition.
The activity of the CFTR corrector compounds on the CFTR-mediated ISC was determined in Ussing chamber studies as described above. The F508del/MF-HBE cell cultures were either incubated with the corrector compounds at a range of concentrations in combination with 1 μM Ivacaftor or were incubated with the corrector compounds at a single fixed concentration of 10 μM in combination with 1 μM Ivacaftor for 18-24 hours at 37° C. and in the presence of 20% human serum. The concentration of corrector compounds with 1 μM Ivacaftor during the 18-24 hours incubations was kept constant throughout the Ussing chamber measurement of the CFTR-mediated ISC to ensure compounds were present throughout the entire experiment. The efficacy and potency of the putative F508del correctors was compared to that of the known Vertex corrector, (14S)-8-[3-(2-{Dispiro[2.0.2.1]heptan-7-yl}ethoxy)-1H-pyrazol-1-yl]-12,12-dimethyl-2λ^6-thia-3,9,11,18,23-pentaazatetracyclo[17.3.1.111,14.05,10]tetracosa-1(22),5,7,9,19(23),20-hexaene-2,2,4-trione, in combination with 18 μM Tezacaftor and 1 μM Ivacaftor.
as §1, with “K2HPO4,” for “K2HIPO4,”

Sequences of proteins named here, by UniProt entry; tags and fusion partners are left off. A line that says so, or that is headed by a name, gives the form on record, which may keep a tag or linker.
UniProt P13569, with tags, fused parts or gaps DEL508-508: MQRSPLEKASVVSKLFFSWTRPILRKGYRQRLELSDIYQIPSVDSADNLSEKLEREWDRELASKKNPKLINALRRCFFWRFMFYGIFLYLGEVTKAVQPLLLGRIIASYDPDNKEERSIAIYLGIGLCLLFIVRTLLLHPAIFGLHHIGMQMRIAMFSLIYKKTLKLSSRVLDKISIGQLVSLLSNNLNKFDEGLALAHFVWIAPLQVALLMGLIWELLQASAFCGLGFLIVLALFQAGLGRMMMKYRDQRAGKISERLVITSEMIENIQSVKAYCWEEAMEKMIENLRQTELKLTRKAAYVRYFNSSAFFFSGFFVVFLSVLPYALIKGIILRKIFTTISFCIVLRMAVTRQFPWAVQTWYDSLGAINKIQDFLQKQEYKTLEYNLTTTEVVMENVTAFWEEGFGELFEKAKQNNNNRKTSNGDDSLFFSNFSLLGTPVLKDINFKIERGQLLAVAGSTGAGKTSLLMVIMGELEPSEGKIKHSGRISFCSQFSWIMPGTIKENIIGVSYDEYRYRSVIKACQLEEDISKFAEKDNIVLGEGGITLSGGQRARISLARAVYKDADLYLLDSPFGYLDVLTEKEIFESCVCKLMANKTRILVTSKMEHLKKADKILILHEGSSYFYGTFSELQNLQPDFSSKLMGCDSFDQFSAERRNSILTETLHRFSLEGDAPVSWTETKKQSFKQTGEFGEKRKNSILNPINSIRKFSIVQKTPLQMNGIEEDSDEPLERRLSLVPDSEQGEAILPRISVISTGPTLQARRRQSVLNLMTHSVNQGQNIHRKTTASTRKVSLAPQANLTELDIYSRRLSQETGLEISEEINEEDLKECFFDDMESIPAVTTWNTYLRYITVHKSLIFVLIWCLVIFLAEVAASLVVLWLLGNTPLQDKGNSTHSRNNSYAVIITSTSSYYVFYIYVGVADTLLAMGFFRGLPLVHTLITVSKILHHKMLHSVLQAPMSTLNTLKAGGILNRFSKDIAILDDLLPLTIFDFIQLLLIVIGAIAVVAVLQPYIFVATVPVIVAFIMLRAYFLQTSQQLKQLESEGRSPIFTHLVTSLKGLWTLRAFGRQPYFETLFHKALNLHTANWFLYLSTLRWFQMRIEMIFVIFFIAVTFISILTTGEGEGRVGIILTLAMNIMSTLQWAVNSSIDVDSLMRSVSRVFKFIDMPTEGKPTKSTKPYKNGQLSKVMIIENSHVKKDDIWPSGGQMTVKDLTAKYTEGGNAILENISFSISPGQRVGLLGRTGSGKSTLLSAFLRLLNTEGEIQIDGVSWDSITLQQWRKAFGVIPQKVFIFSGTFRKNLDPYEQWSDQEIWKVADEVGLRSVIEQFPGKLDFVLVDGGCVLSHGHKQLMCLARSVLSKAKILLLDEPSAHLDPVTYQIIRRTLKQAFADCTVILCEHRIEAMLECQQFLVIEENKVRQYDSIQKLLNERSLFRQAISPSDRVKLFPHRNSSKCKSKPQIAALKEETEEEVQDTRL

CFTR [2] = target: T1, CFTR (Homo sapiens, UniProt P13569); assay: Membrane Potential Dye, Enteroid Assay B; settings: for EC50: read-out: Ent. B EC50
Experimental: (§2) Base medium (ADF+++) consisted of Advanced DMEM/Ham's F12, 2 mM Glutamax, 10 mM HEPES, 1 µg/mL penicillin/streptomycin.
(§3) Intestinal enteroid maintenance medium (IEMM) consisted of ADF+++, 1× B27 supplement, 1× N2 supplement, 1.25 mM N-acetyl cysteine, 10 mM Nicotinamide, 50 ng/mL hEGF, 10 nM Gastrin, 1 pg/mL hR-spondin-1, 100 ng/mL hNoggin, TGF-b type 1 inhibitor A-83-01, 100 μg/mL Primocin, […] P38 MAPK inhibitor SB202190.
(§4) Bath 1 Buffer consisted of 1 mM MgCl2, 160 mM NaCl, 4.5 mM KCl, 10 mM HEPES, 10 mM Glucose, 2 mM CaCl2).
(§5) Chloride Free Buffer consisted of 1 mM Magnesium Gluconate, 2 mM Calcium Gluconate, 4.5 mM Potassium Gluconate, 160 mM Sodium Gluconate, 10 mM HEPES, 10 mM Glucose.
(§6) Bath1 Dye Solution consisted of Bath 1 Buffer, 0.04% Pluronic F127, […] Methyl Oxonol, 30 μM CaCCinh-A01, 30 μM Chicago Sky Blue.
(§7) Chloride Free Dye Solution consisted of Chloride Free Buffer, 0.04% Pluronic F127, 20 μM Methyl Oxonol, 30 μM CaCCinh-A01, 30 μM Chicago Sky Blue.
Chloride Free Dye Stimulation Solution consisted of Chloride Free Dye Solution, 10 μM forskolin, 100 μM IBMX, and 300 nM Compound III.
Human intestinal epithelial enteroid cells were obtained from the Hubrecht Institute for Developmental Biology and Stem Cell Research, Utrecht, The Netherlands and expanded in T-Flasks as previously described (Dekkers J F, Wiegerinck C L, de Jonge H R, Bronsveld I, Janssens H M, de Winter-de Groot K M, Brandsma A M, de Jong N W M, Bijvelds M J C, Scholte B J, Nieuwenhuis E E S, van den Brink S, Clevers H, van der Ent C K, Middendorp S and M Beekman J M. A functional CFTR assay using primary cystic fibrosis intestinal organoids. Nat Med. 2013 July; 19(7):939-45.).
Cells were recovered in cell recovery solution, collected by centrifugation at 650 rpm for 5 min at 4° C., resuspended in TryPLE and incubated for 5 min at 37° C. […]
Enteroid cells were incubated with test compound in IEMM for 18-24 hours at 37° C., 95% humidity and 5% CO2. […] Chloride transport was initiated by addition of Chloride Free Dye Stimulation Solution and the fluorescence signal was read for 15 min. […] Chloride transport was then expressed as a percentage of the chloride transport following treatment with 1 μM (14S)-8-[3-(2-{Dispiro[2.0.2.1]heptan-7-yl}ethoxy)-1H-pyrazol-1-yl]-12,12-dimethyl-2λ^6-thia-3,9,11,18,23-pentaazatetracyclo[17.3.1.111,14.05,10]tetracosa-1(22),5,7,9,19(23),20-hexaene-2,2,4-trione, 3 μM (R)-1-(2,2-difluorobenzo[d][1,3]dioxol-5-yl)-N-(1-(2,3-dihydroxypropyl)-6-fluoro-2-(1-hydroxy-2-methylpropan-2-yl)-1H-indol-5-yl)cyclopropanecarboxamide and 300 nM acute N-[2,4-bis(1,1-dimethylethyl)-5-hydroxyphenyl]-1,4-dihydro-4-oxoquinoline-3-carboxamide triple combination control (% Activity).

CFTR [3] = target: T1, CFTR; assay: Membrane Potential Dye, Enteroid Assay A
Experimental: as §2, §3, §4, §5, §6, §7
Chloride Free Dye Stimulation Solution consisted of Chloride Free Dye Solution, 10 μM forskolin, 100 μM IBMX, and 300 nM Compound III. […]
Enteroid cells were incubated with test compound in IEMM for 18-24 hours at 37° C., 95% humidity and 5% CO2. […] Chloride transport was initiated by addition of Chloride Free Dye Stimulation Solution and the fluorescence signal was read for 15 min. […]

What does the source list for `Cc1cccc(C)c1-c1nc2nc(c1C)OC[C@@H](CC(C)C)N(Cc1cncc(N(C)CC(C)(C)C)n1)C(=O)c1cccc(c1)S(=O)(=O)N2`?
HBE Max Activity (CFTR [1]): +++ (+++ is >600%); EC50 (CFTR [1]): < 1000 nM

What does the source list for `Cc1cccc(C)c1-c1nc2nc(c1-c1ccccn1)OC[C@@H](C)NC(=O)c1cccc(c1)S(=O)(=O)N2`?
Ent. B Max Activity (CFTR [2]): + (+ is <30%); EC50 (CFTR [2]): 3000 to 30000 nM

What does the source list for `Cc1cccc(CC(C)C)c1-c1nc2nc(c1C)OC[C@@H](CC(C)(C)C)N(Cc1nccc(N(C)C(C)C)n1)C(=O)c1cccc(c1)S(=O)(=O)N2`?
HBE Max Activity (CFTR [1]): +++ (+++ is >600%); EC50 (CFTR [1]): < 1000 nM

How did the “HBE Max Activity” value (CFTR [1]) turn out when `Cc1cccc(CC(C)C)c1-c1nc2nc(c1C)OC[C@@H](CC(C)C)N(Cc1ncc(OC(C)C)cn1)C(=O)c1cccc(c1)S(=O)(=O)N2` was run?
Its value is “+++ (+++ is >600%)”.

And the EC50 (CFTR [1])?
Its EC50 is less than 1000 nM.

Which “Ent. B Max Activity” value (CFTR [2]) does the source give for `COc1ccc(-c2c3nc(nc2-c2c(C)cccc2C)NS(=O)(=O)c2cccc(c2)C(=O)N[C@H](CC(C)C)CO3)cc1` here?
Its value is “+++ (+++ is >60%)”.

And the EC50 (CFTR [2])?
Its EC50 is less than 1000 nM.

Which “Ent. A Max Activity” value (CFTR [3]) does the source give for `Cc1ccccc1-c1nc2nc(c1C(F)(F)F)OCC1CN(CCC3(C(F)(F)F)CC3)CCN1C(=O)c1cccc(c1)S(=O)(=O)N2` (stereo not drawn) here?
The value was “++ (++ is 30-60%)”.

What about the EC50 (CFTR [3]; read-out: Ent. A EC50) of the same molecule?
Its EC50 is 1000 to 3000 nM.

Reference: US20230374038A1, “MODULATORS OF CYSTIC FIBROSIS TRANSMEMBRANE CONDUCTANCE REGULATOR” (VERTEX PHARMACEUTICALS INCORPORATED, priority 2020, published 2023)
